Consider 1 molecule from article PMC8281802, “Bacterial Vipp1 and PspA are members of the ancient ESCRT-III membrane-remodeling superfamily” (Cell, 2021).

This experiment addresses Vipp1_(F197K/L200K) (Nostoc punctiforme) (UniProt B2J6D9). Briefly: negative stain EM; purified protein imaged by negative stain EM; rings, ring stacks, filaments and ribbons seen; both purified.

Results are given in words; binding and its absence hold for the method and conditions named. Some binding calls cover weakened binding; strength is not graded here.

B1: Vipp1_(F197K/L200K) (protein, UniProt B2J6D9 1-258)
chain: MGLFDRIKRVVSSNLNDLVNKAEDPEKMLEQAILEMQEDLVQLRQGVAQAIAAQKRSEKQYNDAQNEINKWQRNAQLALQKGDENLARQALERKKTYTDTSAALKASLDTQSTQVETLKRNLIQLESKISEAKTKKEMLKARITTAKAQEQLQGMVRGMNTSSAMSAFERMEEKVLMQESRAQALGELAGADLETQKAQKEGGSDVDDELAALKAQMLPPATPVTQAQLPPQQETTPAKSNEVVDAELDSLRKQLDQL
Take B1: the binding entry is given as “binds weakly”.
